According to PMC8063000:
Results are given in words; binding and its absence hold for the method and conditions named. In cells and extracts the contact can be indirect. Some results given as binding are weak or reduced against the parent protein; the word gives no strength. Tags and fused reporters may be left off the sequences shown.

Amino acid sequences for entries named in this document (tags omitted). A change or cut given only in a name is not applied to a line headed by its entry. Chains listed by the source or under a name are the forms on record and can include a tag or linker.
UXT-V1-M13G-HA (Q9UBK9-2, form named): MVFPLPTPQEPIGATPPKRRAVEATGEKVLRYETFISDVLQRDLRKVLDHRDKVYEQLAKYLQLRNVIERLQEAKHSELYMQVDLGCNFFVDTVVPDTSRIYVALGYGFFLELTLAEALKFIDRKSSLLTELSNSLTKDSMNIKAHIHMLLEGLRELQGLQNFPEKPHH

How the values were obtained:
[1] = molecular target: T1, 2xFLAG-Fbxo7 (wild type) (human) (UniProt Q9Y3I1); assay: co-IP; HEK293T transfected with FLAG-Fbxo7 and UXT-V1-M13G or UXT-V2; NP-40 lysis buffer; extracts immunoprecipitated (antibody not told), SDS-PAGE and immunoblot
T1 sequence: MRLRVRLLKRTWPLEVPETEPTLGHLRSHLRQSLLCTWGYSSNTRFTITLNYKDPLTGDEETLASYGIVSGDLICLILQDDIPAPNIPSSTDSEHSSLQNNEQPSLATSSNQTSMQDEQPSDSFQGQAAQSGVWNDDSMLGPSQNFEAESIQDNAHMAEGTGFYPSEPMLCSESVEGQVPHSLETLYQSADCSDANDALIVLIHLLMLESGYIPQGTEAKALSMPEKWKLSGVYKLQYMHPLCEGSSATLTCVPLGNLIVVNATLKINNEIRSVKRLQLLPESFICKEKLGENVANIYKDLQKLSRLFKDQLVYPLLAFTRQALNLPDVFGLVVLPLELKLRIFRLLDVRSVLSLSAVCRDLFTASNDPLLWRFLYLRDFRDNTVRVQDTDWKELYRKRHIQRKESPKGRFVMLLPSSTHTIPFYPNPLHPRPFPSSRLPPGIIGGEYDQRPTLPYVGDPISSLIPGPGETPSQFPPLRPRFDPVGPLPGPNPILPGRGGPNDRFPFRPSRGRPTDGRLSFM

[2] = molecular target: T1, 2xFLAG-Fbxo7 (wild type) (human); assay: co-IP; HEK293T co-transfected with 2xFLAG-Fbxo7 plasmids and UXT-V2-HA; NP-40 lysis buffer; immunoprecipitated with agarose anti-FLAG; immunoblot of input and eluted proteins
[3] = molecular target: T2, 2xFLAG-Fbxo7-ΔF-box (human) (UniProt Q9Y3I1); assay: as above
T2 sequence: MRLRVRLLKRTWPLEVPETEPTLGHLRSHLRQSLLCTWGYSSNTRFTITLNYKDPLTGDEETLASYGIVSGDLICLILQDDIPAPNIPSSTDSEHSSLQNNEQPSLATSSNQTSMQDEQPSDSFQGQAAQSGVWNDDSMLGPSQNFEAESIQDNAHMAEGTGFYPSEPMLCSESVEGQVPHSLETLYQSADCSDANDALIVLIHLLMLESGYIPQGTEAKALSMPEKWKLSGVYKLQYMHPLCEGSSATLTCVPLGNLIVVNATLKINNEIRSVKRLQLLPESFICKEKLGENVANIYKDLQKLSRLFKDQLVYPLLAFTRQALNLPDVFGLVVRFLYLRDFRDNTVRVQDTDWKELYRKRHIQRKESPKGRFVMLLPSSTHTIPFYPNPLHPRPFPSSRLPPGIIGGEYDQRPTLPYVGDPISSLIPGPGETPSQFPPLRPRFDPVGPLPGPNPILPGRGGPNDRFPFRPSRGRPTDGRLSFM

With “UXT-V1-M13G-HA (from UniProt Q9UBK9-2 1-169)” the binding [1] was “binds”.
For “UXT-V2-HA (Ubiquitously eXpressed Transcript isoform 2) (from UniProt Q9UBK9-1 1-157)”, the binding [2] was “binds”, the binding [3] was “binds” and the binding [1] was “binds”.
